Measurements as given in PubChem BioAssay AID652163 (Broad Institute, 2013).
The campaign covered roughly 360,000 compounds. About 500 (0.14%) were called active. Inconclusive means that the source gave no clear call. Such entries were picked first, then a sample of the others.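 Rule for the calls: active = mean inhibition of at least 70% across replicates, with every replicate also reaching that level; inconclusive = mean inhibition reaches 70% but some replicates fall short; inactive = mean inhibition below 70%.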

Sequences of proteins named here, by UniProt entry; tags and fusion partners are left off.
UniProt P26447, whole entry, looked up: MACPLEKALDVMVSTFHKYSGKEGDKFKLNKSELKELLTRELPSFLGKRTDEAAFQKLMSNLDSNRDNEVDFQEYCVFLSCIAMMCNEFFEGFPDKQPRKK

The compounds below were run against Protein S100-A4 (Homo sapiens) (UniProt P26447) (assay: inhibitors of S100A4-myosin IIA peptide binding, primary screen, biochemical, fluorescence polarization, TAMRA-MyoIIA peptide (AID 652163)). Conditions: at 10.7 µM, hits give high values.
Method in brief: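 Material: S100A4 monomer (human). Medium: Calcium-containing HEPES buffer, pH 7.2. Probe or stimulus: labelled myosin peptide probe, 5 nM. Compound dosing: one concentration per compound. Timing: polarization read 5 min after assay mix addition, stable 5–60 min. Benchmarks: DMSO as neutral control, TFP as positive control.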

Structure (SMILES) | inhibition
Cc1ccc(C)c(N(CC(=O)NC2CCCC2)S(=O)(=O)c2ccccc2)c1 | inconclusive: 80%
O=C(CNc1cccc(S(=O)(=O)N2CCOCC2)c1)Nc1cccc(Br)c1 | inactive: -4.08%
CCc1cc2c(COC(=O)c3c(C)noc3C)cc(=O)oc2cc1O | inconclusive: 90.1%
Cc1cccc(-n2c(=S)[nH]c3c(oc4ccccc43)c2=O)c1 | inconclusive: 92.7%
CCCN(C)C[C@H]1OCCCC[C@H](C)Oc2ccc(NC(=O)NC3CCCCC3)cc2C(=O)N([C@@H](C)CO)C[C@H]1C | inactive: -38.7%
CC(C)NC(=O)N(C)C[C@@H]1Oc2c(NC(=O)c3cnccn3)cccc2C(=O)N([C@@H](C)CO)C[C@@H]1C | inconclusive: 89.2%
C[C@@H]1CN([C@H](C)CO)C(=O)c2cc(C#CC3CC3)cnc2O[C@H]1CN(C)S(C)(=O)=O | inconclusive: 74.1%
C[C@@H]1CN([C@H](C)CO)C(=O)c2cccc(NC(=O)c3ccncc3)c2O[C@H]1CN(C)S(=O)(=O)c1cccs1 | inconclusive: 144%
Cc1noc(C)c1S(=O)(=O)Nc1ccc2c(c1)C(=O)N([C@@H](C)CO)C[C@H](C)[C@H](CN(C)Cc1ccc3c(c1)OCO3)OCCCC[C@@H](C)O2 | inconclusive: 75.7%
Nc1ccc(S(=O)(=O)c2ccc(NC(=O)c3cccnc3)cc2)cc1 | inconclusive: 75.7%
O=C(O)C1C2C=CC3(CN(Cc4ccco4)C(=O)C13)O2 (stereo not drawn) | inconclusive: 74%
CCC(=O)N[C@@H]1CC[C@@H](CC(=O)NCC2CCCCC2)O[C@H]1CO | inconclusive: 80%
C[C@H]1CN([C@@H](C)CO)C(=O)c2cc(C#CC3CCCCC3)cnc2O[C@H]1CN(C)Cc1cncnc1 | active: 98.5%
COc1ccc(CN(C)C[C@H]2Oc3c(NC(=O)NC4CCCCC4)cccc3C(=O)N([C@@H](C)CO)C[C@H]2C)cc1 | inactive: -6.62%
O=C(Nc1ccnn1C1CCN(Cc2ccccc2)CC1)C1CCCC1 | inconclusive: 115%
CCCC#Cc1cnc2c(c1)C(=O)N([C@@H](C)CO)C[C@@H](C)[C@@H](CN(C)S(=O)(=O)c1cn(C)cn1)O2 | inconclusive: 79.1%
O=C(CNC(=O)c1ccc(Cl)cc1Cl)OCc1cn2cc(Br)ccc2n1 | active: 74.3%
C[C@@H]1CN([C@H](C)CO)C(=O)c2cc(NS(=O)(=O)c3ccccc3)ccc2O[C@@H](C)CCCCO[C@@H]1CN(C)CC1CC1 | inactive: 4.18%
C/C=C\C=C/C(=O)Nc1cccc(C2=NOC3(C2)C[C@@H](C(N)=O)N(C(=O)COc2ccc(Cl)cc2)C3)c1 (stereo partly drawn) | inconclusive: 72%
O=C(c1ccccc1F)N1CC(=O)N2[C@H](CO)[C@@H](c3ccc(-c4cccnc4)cc3)[C@@H]2C1 | inconclusive: 119%
CCN(CC)C(=O)CN1C(=O)c2cccc3cccc(c23)C1=O | inactive: 1.97%
Cc1ccc(S(=O)(=O)Nc2cccc3c2O[C@@H](CN(C)S(=O)(=O)c2ccccc2)[C@H](C)CN([C@@H](C)CO)C3=O)cc1 | inconclusive: 110%

Three structures from above, ordered by count of non-hydrogen atoms, falling:
Structure (SMILES) | inhibition
CC(C)NC(=O)N(C)C[C@@H]1Oc2c(NC(=O)c3cnccn3)cccc2C(=O)N([C@@H](C)CO)C[C@@H]1C | inconclusive: 89.2%
CCCC#Cc1cnc2c(c1)C(=O)N([C@@H](C)CO)C[C@@H](C)[C@@H](CN(C)S(=O)(=O)c1cn(C)cn1)O2 | inconclusive: 79.1%
C[C@@H]1CN([C@H](C)CO)C(=O)c2cc(C#CC3CC3)cnc2O[C@H]1CN(C)S(C)(=O)=O | inconclusive: 74.1%

(further entries)

Structure (SMILES) | inhibition
Cc1noc(C)c1NC(=O)Nc1ccc2c(c1)C(=O)N([C@@H](C)CO)C[C@@H](C)[C@H](CN(C)S(=O)(=O)c1c(C)noc1C)OCCCC[C@H](C)O2 | inconclusive: 73.3%
O=C(CCN1CCCCC1)N[C@H]1CC[C@@H](CCNS(=O)(=O)c2ccc(Cl)cc2)O[C@H]1CO | active: 82.4%
COCC(=O)N1CCC2(CC1)CN(C(=O)Nc1ccccc1F)[C@H](CO)c1c2c2ccc(OC)cc2n1C | inconclusive: 178%
CC(C)NC(=O)N(C)C[C@@H]1Oc2ccc(NC(=O)Nc3ccc(F)cc3)cc2C(=O)N([C@@H](C)CO)C[C@@H]1C | inconclusive: 95.8%
CCCNC(=O)C[C@H]1CC[C@@H]2[C@@H](COc3ccc(NC(=O)Nc4cccc(C)c4)cc3C(=O)N2C)O1 | inconclusive: 78.1%
COc1cc(OC)cc(-c2cc(N)n(S(=O)(=O)c3cccc4nsnc34)n2)c1 | inconclusive: 81.2%
C[C@@H]1CN([C@H](C)CO)C(=O)Cc2cc(NC(=O)Nc3ccc(C(F)(F)F)cc3)ccc2O[C@H]1CN(C)Cc1ccc2c(c1)OCO2 | active: 101%
COc1ccc(-n2c(SCC(=O)NCC3CCCO3)nc3c(c2=O)SCC3)cc1OC (stereo not drawn) | inconclusive: 135%
COc1ccc(NC(=O)Nc2cccc3c2O[C@H](CN(C)Cc2ccc4c(c2)OCO4)[C@@H](C)CN([C@@H](C)CO)C3=O)cc1 | active: 118%
CO[C@@H]1CN(C)C(=O)c2cc(NC(C)=O)ccc2OC[C@H](C)N(Cc2cncnc2)C[C@H]1C | active: 75.6%
CC(=O)c1cccc(NC(=O)NCCc2c[nH]c3ccccc23)c1 | inactive: -5.5%
CC(C)n1cc(C(=O)c2ccccc2O)cc(C#N)c1=O | inactive: 2.47%
O=C(c1ccccc1)N1CC(=O)N2[C@@H](CO)[C@@H](c3ccc(C#Cc4ccccc4)cc3)[C@@H]2C1 | inactive: -14.5%
CCC1CCCCN1C(=O)CCNS(=O)(=O)c1ccc2c(c1)oc(=O)n2C (stereo not drawn) | inconclusive: 80.8%
CCCC[n+]1ccn(C2=C([O-])c3ccccc3C(=O)/C2=N\S(=O)(=O)c2ccc(Br)cc2)c1 | inconclusive: 82.9%
C[C@@H]1CN([C@H](C)CO)C(=O)Cc2cc(NC(=O)NC3CCCCC3)ccc2O[C@@H]1CN(C)C(=O)Nc1ccc(C(F)(F)F)cc1 | inconclusive: 93.2%
COc1ccc(Br)cc1/C=C/C(=O)OCC(=O)NCCc1ccc(S(N)(=O)=O)cc1 | inactive: 3.59%
O=C(C1CCCC1)N1CC2(C1)[C@H](c1ccccc1)[C@H](CO)N2Cc1ccc(Cl)cc1 | inconclusive: 80.1%
O=C(NCc1ccccn1)c1cc(-c2ccc(Cl)cc2)nc2ccccc12 | inconclusive: 77.2%
O=C(Nc1ccc(F)cc1)Nc1ccc2c(c1)[C@H]1C[C@H](CC(=O)N3CCOCC3)O[C@H](CO)[C@H]1O2 | inactive: -3.25%
COc1ccc(S(=O)(=O)N(C)C[C@H]2Oc3ccc(NS(=O)(=O)c4c(C)noc4C)cc3CC(=O)N([C@H](C)CO)C[C@@H]2C)cc1 | inconclusive: 126%
